# Laboratory results reported in patent publication US6808924B1, “Mouse mammary tumor lines expressing estrogen and progesterone receptors” (priority 2000, dated 2004).
# At least one structure is not confirmed: it was looked up by name or label, or the drawing left a doubt.
# Key:
# [1] = tested on: MC4-L3 tumors; assay: In vivo hormone response, MC4-L3 tumors in BALB/c female mice; set-up: species or system mouse; conditions: MC4-L3 tumors about 50 mm2; ZK 10 mg/Kg or RU 6.5 mg/Kg daily sc, E2 5 mg silastic pellet sc
# Protocol: (§1) Cells were trypsinized and resuspended in 10 fold excess of culture medium and 10% FCS. After centrifugation cells were resuspended in serum-free medium and […] were injected sc in a final volume of 0.1 ml using a 21 gauge needle in the right inguinal flank of BALB/c mice which have been inoculated contralaterally with 40 mg MPA depot (Gador Laboratories, Buenos Aires). The mice were examined every three days for the development of palpable tumors. At the end of the experiment the animals were killed and the tumors excised. Complete autopsies were performed to detect the presence of metastases. Animal care was in agreement with institutional guidelines. Cells from different lines were inoculated into BALB/c female mice treated or not with MPA as described previously. If tumors grew similarly in treated and untreated animals, the tumors growing in untreated mice were used for the next passage. Tumors were transplanted by trocar sc in the right inguinal flank of 2 month old, BALB/c female mice. Hormone treatments were initiated when the tumors reached around 50 mm2. RU (6.5 mg/Kg body weight) and ZK (10 mg/Kg body weight) were inoculated as daily sc injections. E2 was administered as 5 mg silastic pellets implanted sc. Tumor growth was measured every 2-3 days.
# [2] = tested on: MC7-L1 cell line; assay: In vitro hormone response, 3H-thymidine uptake, MC7-L1; type: cell-based, mouse; set-up: In vitro proliferative response: key to the marks not given beside the values
# Protocol: (§2) 3H-Thymidine uptake: In a 96 well microplate, 0.1 ml/well of a cell suspension were seeded in EM at a concentration of 10^5 cell/ml. After attachment (24 hs), the cells were incubated for 72 hs with the experimental solutions to be tested. Half the media was changed every 24 hs. The cells were incubated with 0.4 μCi of ^3H-thymidine (specific activity: 20 Ci/mmol) for 24 hs, trypsinized and harvested in a cell harvester. Filters were counted in a liquid scintillation counter. Assays were performed in octuplicates and mean and standard deviation were calculated for each solution tested. The difference between controls and experimental groups were analyzed by ANOVA followed by Dunnet's t test between groups.
# [3] = tested on: MC4-L1 cell line; assay: In vitro hormone response, 3H-thymidine uptake, MC4-L1; type: cell-based, mouse
# Protocol: as §2
# [4] = tested on: MC4-L2 cell line; assay: In vitro hormone response, 3H-thymidine uptake, MC4-L2; type: cell-based, mouse; set-up: In vitro proliferative response: key to the marks not given beside the values
# Protocol: as §2
# [5] = tested on: MC4-L1 tumors; assay: In vivo hormone response, MC4-L1 tumors in BALB/c female mice; set-up: species or system mouse; conditions: MC4-L1 tumors about 50 mm2, no MPA; ZK 10 mg/Kg or RU 6.5 mg/Kg daily sc, E2 5 mg silastic pellet sc
# Protocol: as §1
# [6] = tested on: MC4-L3 cell line; assay: In vitro hormone response, 3H-thymidine uptake, MC4-L3; type: cell-based, mouse; conditions: MC4-L3, Table 2 grade
# Protocol: as §2
SMILES,effect on tumor size (tumor regression) [1],"effect on cell proliferation (3H-thymidine uptake) ([2]; MC7-L1, 100 nM to 1 μM)","effect on cell proliferation (3H-thymidine uptake) ([3]; MC4-L1, early passages (before passage number 16))","effect on cell proliferation (3H-thymidine uptake) ([3]; MC4-L1, later passages)","effect on cell proliferation (3H-thymidine uptake) ([4]; MC4-L2, 0.1 nM to about 10 nM)",effect on tumor size (tumor regression) [5],In vitro proliferative response [6],"In vitro proliferative response ([2]; MC7-L1, Table 2 grade)","In vitro proliferative response ([3]; MC4-L1, Table 2 grade)","In vitro proliferative response ([4]; MC4-L2, Table 2 grade)"
"C[C@]12CC[C@@H]3c4ccc(O)cc4CC[C@H]3[C@@H]1CC[C@@H]2O [E2, estradiol]",Complete regression,stimulated cell proliferation,stimulated cell proliferation,no significant effects,stimulated cell proliferation,Only animals treated with ZK showed tumor regression,,,,
"CC(=O)O[C@]1(C(C)=O)CC[C@H]2[C@@H]3C[C@H](C)C4=CC(=O)CC[C@]4(C)[C@H]3CC[C@@]21C [MPA, medroxyprogesterone acetate]",,,,,,,−,++++,±,++
